In publication PMC4518582:

What was measured:
[1] = system: T1, FurA (Nostoc sp. PCC 7120); assay: EMSA; settings: 1 mM Mn2+, 1 mM DTT; FurA: 10 mM Tris pH 7.5, 40 mM KCl, 0.1 mg/ml BSA, 5% glycerol, 1 mM MnCl2, 1 mM DTT, 50 ug/ml salmon sperm DNA; NtcA: 12 mM HEPES-NaOH pH 8, 4 mM Tris-HCl pH 8; recombinant protein; residues 1-151; label: Cy5 on reverse primer (3' end as stated); probe letters rebuilt from the primers and the genome
T1 sequence (looked up): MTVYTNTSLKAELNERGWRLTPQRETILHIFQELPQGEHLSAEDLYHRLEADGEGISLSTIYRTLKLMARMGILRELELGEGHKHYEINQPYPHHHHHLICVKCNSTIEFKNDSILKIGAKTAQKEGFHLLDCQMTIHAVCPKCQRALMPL

NtcA = molecular target: T2, NtcA (UniProt P0A4U6); assay: EMSA; settings: 1 mM 2-oxoglutarate; FurA: 10 mM Tris pH 7.5, 40 mM KCl, 0.1 mg/ml BSA, 5% glycerol, 1 mM MnCl2, 1 mM DTT, 50 ug/ml salmon sperm DNA; NtcA: 12 mM HEPES-NaOH pH 8, 4 mM Tris-HCl pH 8; recombinant protein; label: Cy5 on reverse primer (3' end as stated); probe letters rebuilt from the primers and the genome
T2 sequence (looked up, limits assumed): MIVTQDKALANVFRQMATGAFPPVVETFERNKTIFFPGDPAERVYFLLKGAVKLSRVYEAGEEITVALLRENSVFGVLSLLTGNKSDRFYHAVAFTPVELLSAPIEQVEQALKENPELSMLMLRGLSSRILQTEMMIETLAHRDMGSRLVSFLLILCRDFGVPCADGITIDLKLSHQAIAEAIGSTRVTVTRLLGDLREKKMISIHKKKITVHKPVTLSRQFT

## GTTTTTGTGGTTTTGAGCATTGAGGGTTTATGCAGAGGCTCATCGCTTCGGCAAGTAACAGTTTTATCAGAATAGTTTAACCTGATCGGGATTCTTCGTAATAAATTAGGCGATCGCAATATCTCATCTCAAGTGGGACAATGAATTATAAAAATGTCAATTACCTTTCTTGATCATGATTTTTTCCATTTCATGGTTCAAAAAAGCTCCCACTGTGGCAATCTGAGAAACATAGGCTTTTAAATCTGATATTTTAACTACAGCAAATCCACCTAATTAAGGTTATGCAAACTCTGCCGACACCCACAACATCCAGTAATACAGCCAACCAAGCCACCTTTGATACTACAATCAAGCGTCGTAAAACCCGTCCTGTGAAAGTGGGTAATGTCACCATCGGCGGTGGCTACCCTGTGGTGGTGCAGTCGATGATTAACGAAGACACTCTTGATAT (double strand) [Ppkn22 (pkn22 promoter)]
[1]
  binding result: binds
NtcA
  binding result: binds

Tags and fusion partners may be left off the protein sequences shown. For some assays here: The exact form of at least one protein or probe is not confirmed.
